In publication PMC10163288:
The other results are listed elsewhere or left out.

B1: il2ra_site2_2erj_normal_mot_HHH_b1_02968_000000142_0001_22_39_H_._HHH_b1_04378_0001_0000300019_0000001_0 (protein)
chain: SSSSDESRRLVERLEEEFEELLRRGDLEELYKLAQEITHLAWKYNDPELQRIARELLERSSSSSS
B2: il2ra_site2_2erj_sap_24_mot_HHH_b2_01204_af2_000000056_0001_19_34_H_._HHH_b1_03604_0001_0000300013_0000001_0_0001_af2pred_0001_1_af2pred_swapped (protein)
chain: SSSSSSSDEEEVERLLEEAKRIRNLKEALEVLQEATEIADKNNNEELLHLITKVLRELSSSSSSS
B3: il2ra_site2_2erj_sap_28_mot_HHH_b1_08290_000000297_0001_19_37_H_._HEEHE_0761_0001_0000500016_0000001_0_0001_af2pred_0001_1_af2pred_swapped (protein)
chain: SSSSSSEEEIRRRVEELLEEAQHIPDLREAMEVLQEAARLADELGDPELLKEVKKVIRKESSSSS
B4: il2ra_site2_2erj_sap_22_mot_0c4a4c8772ac5c82cb0652bfb64fb1f0_0001_af2_000000188_0001_37_51_H_._1519a93453f8284439613b2157c22c9c_0001_0001_0000800043_0000001_0_0 … (protein)
chain: SSSSSDWLHRLYELAEEIIKALHEGDPEAVRELLEELEKLAEEAQSDVAKEIIERVERELSSSSS
B5: il2ra_site1_2b5i_normal_mot_HHH_b1_03896_000000019_0001_1_17_H_._ems_3hC_1310_0001_0000100013_0000001_0_af2pred_dldesign_0_af2pred (protein)
chain: AEDRALLERLEAAHKRAGAANDDELEAALEDAARALERTRRTRDAAARAAARAAAEAVIARALES
B6: il2ra_site1_1z92_sap_8_mot_a31c9f16200a66e5ad31ddff700483a3_0001_1_000000069_0001_19_32_H_._HHH_b1_03395_0001_0000300021_0000001_0_0001_af2pred_0001_af2pred_1 (protein)
chain: PEELAEEARELLENGNPEEARKVLEKLAKELGTEEAFKLDLERAERFTGNPEVALKALIAALARH
B7: il2ra_site2_2erj_sap_19_mot_HHH_b2_02646_000000001_0001_40_53_H_._HHH_b2_01480_0001_0000200016_0000001_0_0001 (protein)
chain: SSSSDELRRLFKLASELMELVTRGDEERFREVAEEVEELVEKLNSENAREILEWLERQIKSSSSS
B8: il2ra_site1_1z92_normal_mot_818a9d7520499bc24e5218c3ec3bba43_0001_000000166_0001_34_49_H_._66959ead3e6c57cb3ef8243f3eb758e0_0001_1_af2_0001_0000300024_0000001_0 … (protein)
chain: SASEEDLREAVEKNDEELLEEFIEFLLKTAGDPKFVEAFLRLLVRRLGLPPEVLEKLRELLEELT
B9: il2ra_site1_2b5i_normal_mot_HHH_b1_02015_af2_000000003_0001_1_19_H_._HHH_b2_05139_af2_0001_0000500042_0000001_0_af2pred_dldesign_0_af2pred (protein)
chain: SSSSDEVYDKIDELYKKALELKRAGKKEEAKKLLEEALELAKAANDEKAVAELEKLLELISSSSS
B10: il2ra_site1_2b5i_sap_16_mot_e0aa41e34d15cf2e554e57505dcbb35d_0001_af2_000000009_0001_53_65_H_._HEEHE_2612_0001_0000300030_0000001_0_0001_af2pred_0001_af2pred (protein)
chain: SSSSDEDEEVTELFREASELYRRGNPEEAEKLLERAAELAEKLGDELVLEDIRRFLELIKSSSSS
B11: il2ra_site1_1z92_normal_mot_8b466c8ab6a4ea9d290724e70e8647ea_0001_000000211_0001_54_65_H_._2874ac36c98298a0dc4d99a960bb3065_0001_af2_0001_0000400048_0000001_0_a … (protein)
chain: TEEFLAEQVIRKIKAGNEEAVEKLVEKLSKASGVPPEEVLKFLLQLLRELGDPEAVEFIEELLRR
B12: il2ra_site2_3nfp_normal_mot_HHH_b1_02297_000000279_0001_41_58_H_._HHH_b2_01981_af2_0001_0000300015_0000001_0_af2pred_0001_af2pred (protein)
chain: SSSSSDEEEVRKEVEKLLEQAEKVDEEEAERLLLRAALLAVELNDFELYAAVNEAMLRLLSSSSS
B13: il2ra_site1_3nfp_sap_16_mot_HHH_b1_02961_000000081_0001_1_18_H_._HHH_b2_07522_0001_0000200013_0000001_0_0001 (protein)
chain: SSSSDTARKANRLLREVMELKKNGNPEEARRLLEELAKELEERGDEVALFLVRQYLRLIEESSSS
B14: il2ra_site2_2erj_sap_16_mot_HHH_b2_03659_000000135_0001_38_56_H_._HHH_b1_00300_0001_0000300021_0000001_0_0001 (protein)
chain: SSSSSLRESYELAVRLTRALAEGDEELIRKLREEIRELAEETNSENLEEILESLERLFHSSSSSS
B15: il2ra_site2_2erj_normal_mot_HHH_b2_07568_000000046_0001_18_34_H_._HHH_b2_00320_af2_0001_0000400008_0000001_0 (protein)
chain: SSSSSSEEVEELLERAEELLEEGDPEQAISLLAEAALLALHLGDPIAEEIRRLAEKVFELSSSSS
B16: il2ra_site1_2b5i_sap_8_mot_HHH_b2_00318_000000002_0001_42_56_H_._HHH_b2_03364_af2_0001_0000100002_0000001_0_0001_af2pred_dldesign_0_af2pred (protein)
chain: SSSSSSKEEELKEEIQKLCDEASKLPPEEANRLLYEALVLARKAKNPELIALVEAAAKKLSSSSS
B17: il2ra_site1_3nfp_normal_mot_136a1b26558f6d63e39c8b7f62c9aa34_0001_af2_000000044_0001_17_31_H_._HHH_b2_04513_0001_0000600033_0000001_0_af2pred_0001_af2pred_1 (protein)
chain: SSSSDLEERVEELLREAEEAAEEGDAQRVDRLVKEALKLADELGNPELKELIRRVMEKLAKSSSS
B18: il2ra_site1_1z92_normal_mot_01209686ea234b34325f918445e6eade_0001_af2_000000154_0001_18_33_H_._HHH_b2_03766_af2_0001_0000200011_0000001_1 (protein)
chain: SSSSSDLEEFAQEVVERLVEELGLSEEVKEALKRDAELLVRLGFSERSLERALKLHAERDSSSSS
B19: il2ra_site1_3nfp_sap_11_mot_9895c1d898f6985d52506ef494acec2a_0001_1_af2_000000173_0001_18_31_H_._HHH_b2_08375_0001_0000500014_0000001_0_0001 (protein)
chain: TLEEYVEKAEEALRDDPEVQEALEKLLKLAEEDPDNKEVAELIIKLVALAQHDREEARKLAEEIK

target: il2ra, P01589; assay: yeast display titration

| Binder | apparent Kd |
| --- | --- |
| B1 | inactive: no binding seen |
| B2 | inactive: no binding seen |
| B3 | inactive: no binding seen |
| B4 | inactive: no binding seen |
| B5 | inactive: no binding seen |
| B6 | inactive: no binding seen |
| B7 | inactive: no binding seen |
| B8 | inactive: no binding seen |
| B9 | inactive: no binding seen |
| B10 | inactive: no binding seen |
| B11 | inactive: no binding seen |
| B12 | inactive: no binding seen |
| B13 | inactive: no binding seen |
| B14 | inactive: no binding seen |
| B15 | inactive: no binding seen |
| B16 | inactive: no binding seen |
| B17 | inactive: no binding seen |
| B18 | inactive: no binding seen |
| B19 | inactive: no binding seen |

As entered above.
Entry for B11 under apparent Kd: inactive: no binding seen
Entry for B4 under apparent Kd: inactive: no binding seen
